# Source: patent US10988457B2, “TLR inhibitors” (Insilico Medicine IP Limited, priority 2019, dated 2021)
# Like-named read-outs stand apart in the source and are kept apart here.
# Key:
# TLR7/8 [1] = experiment: TLR7/8 Inhibition Assay IC50 in human PBMC's, cytokine release after CL075 stimulation (Luminex); assay type: cell-based; details: positive control 2 μg/mL, 24 hours
# Description: Cryopreserved human PBMC's were drip-thawed. Cells were diluted to the appropriate density (1×10^5 per well) and seeded into 96-well polypropylene plates with 150 μL per well of culture medium (RPMI 1640, 10% heat-inactivated FBS, 1% penicillin/streptomycin, 2 mM L-glutamine) for compound test wells. […] The positive controls, CL075 were resuspended in endotoxin-free water at 1 mg/mL to make working stock solutions.
# After the 1-hour incubation, 40 μL appropriate diluted working stock TLR 7/8 ligands were added to the test and reference compound wells, respectively to give final assay volumes of 200 μL. Controls were added to the PBMC's in volumes of 40 μL of diluted working stock, followed by addition of 10 μL of appropriately diluted vehicle, to mimic compound addition, to give final assay volumes of 200 μL. Consequently, the final DMSO vehicle concentration in the assay was from 1 to 0.5%. The control CL075 was used at 2 μg/mL.
# Than plates were centrifuged at 200×g for 10 minutes. […] Cytokine levels in each sample were determined using Luminex methodology, per the manufacturer's protocol.
# The interpolated data were then normalized to the vehicle or unstimulated control.
# Outlier calculation was performed using the Grubbs maximum normed residual test.
# Eight test compounds were evaluated for their ability to inhibit the TLR7/8 in PBMC's from one human donor following incubation of 24 hours.
# TLR7/8 [2] = details: 24 hours
# Description: Namely, in the present experiment their ability was evaluated to inhibit TLR7/8 in human PBMC's, as measured by the release of specific cytokines. The following cytokines were measured for a complete cytokine response profile (no dilution of samples): IL-1β, IL-6, IL-12p40, TNFα and IFNα.
# Levels of each cytokine induction were interpolated from standard curves using a 5-parameter non-linear regression analysis, where y=(A+((B−A)/(1+(((B−E)/(E−A))*((x/C)^D))))). The interpolated data were then normalized to the vehicle control. Percent of control (PoC) was also calculated using the formula, PoC=(test sample/positive vehicle control)×100.
# Cryopreserved human PBMC's were drip-thawed. Cells were diluted to the appropriate density (1×10^5 per well) and seeded into 96-well polypropylene plates with 150 μL per well of culture medium (RPMI 1640, 10% heat-inactivated Fetal Bovine Serum (FBS), 1% penicillin/streptomycin, 2 mM L-glutamine) for compound test wells. For the control wells, cells (1×10^5 per well) were plated in 150 μL per well of culture medium.
# Cells were incubated at 37° C., 5% CO2 for 1 hour prior to the addition of test compounds or controls.
# Test compounds were solubilized in DMSO to make 20× stock solutions, then diluted further with cell culture medium.
# Test compounds were added to the PBMC's in volumes of 10 μL and incubated for 1 hour at 37° C., 5% CO2. Compounds were tested in duplicates at final assay concentrations of 10 μM.
# Plates were incubated at 37° C., 5% CO2 for 24 hours. Plates were centrifuged at 200×g for 10 minutes. Cell culture supernatants were collected and stored at −80° C. until needed for analysis.
# Harvested cell culture supernatants were measured for IL-1β, IL-6, IL-12p40, TNFα and IFNα release to assess dual TLR7/8 inhibition.
# [3] = positive control CL075 2 μg/mL alone, defines 100 % of control, human PBMC's
compound,measurement,setting,value
CCCc1nc2c(N)nc3ccccc3c2s1 [CL075],stimulation of cytokine release from human PBMC's (in words),TLR7/8 [1],stimulated the release of appropriate cytokines
same,stimulation of cytokine release from human PBMC's (in words),TLR7/8 [2]; positive control 2 μg/mL,stimulated the release of appropriate cytokines
same,"TLR7/8 Inhibition, IFNα (POC %)",TLR7/8 [2]; [3],100%
same,"TLR7/8 Inhibition, IL-1β (POC %)",TLR7/8 [2]; [3],100%
same,"TLR7/8 Inhibition, IL-6 (POC %)",TLR7/8 [2]; [3],100%
same,"TLR7/8 Inhibition, IL-12p40 (POC %)",TLR7/8 [2]; [3],100%
same,"TLR7/8 Inhibition, TNFα (POC %)",TLR7/8 [2]; [3],100%
